Measurements reported in article PMC6978316, “Development of chimeric peptides to facilitate the neutralisation of lipopolysaccharides during bactericidal targeting of multidrug-resistant Escherichia coli” (Communications Biology, 2020).

Tested on: E. coli 0111:B4 LPS
Experiment: CD spectra of peptides with or without LPS
Set-up: species or system Escherichia coli
Settings: 10 mM Tris buffer, E. coli LPS 0.2 mg per ml

Row | Molecule | decrease of antiparallel structure after binding to LPS (CD) | increase of helices after binding to LPS (CD) | increase of random coils after binding to LPS (CD)
1 | CC(C)[C@@H]1NC(=O)CNC(=O)[C@H](CC(N)=O)NC(=O)[C@H](CCCNC(=N)N)NC(=O)[C@H](Cc2ccc(O)cc2)NC(=O)[C@H](C(C)C)NC(=O)[C@@H](NC(=O)[C@@H](NC(=O)[C@H](CC(N)=O)NC(=O)[C@H](Cc2c[nH]c3ccccc23)NC(=O)[C@H](C)NC(=O)[C@H](Cc2ccccc2)NC(=O)CN)C(C)C)CSSC[C@@H](C(=O)N[C@@H](Cc2c[nH]cn2)C(=O)N[C@@H](CCCNC(=N)N)C(=O)N[C@@H](CCCNC(=N)N)C(=O)N[C@@H](C)C(=O)N[C@@H](CC(N)=O)C(=O)O)NC(=O)[C@H](C(C)C)NC(=O)[C@H](CCCNC(=N)N)NC1=O [N6, reference compound] (H-GFAWNVCVYRNGVRVCHRRAN-OH; disulfide 7-16; N-terminus and C-terminus assumed) | 45.21% | 19.84% | 26.7%
2 | H-RVQGRWKVRASFFKEAAAKEAAAKGFAWNVCVYRNGVRVCHRRAN-OH (disulfide 31-40) [A6] | 12.23% | 3.76% | ~ 7%
3 | CC(C)[C@@H]1NC(=O)CNC(=O)[C@H](CC(N)=O)NC(=O)[C@H](CCCNC(=N)N)NC(=O)[C@H](Cc2ccc(O)cc2)NC(=O)[C@H](C(C)C)NC(=O)[C@@H](NC(=O)[C@@H](NC(=O)[C@H](CC(N)=O)NC(=O)[C@H](Cc2c[nH]c3ccccc23)NC(=O)[C@H](C)NC(=O)[C@H](Cc2ccccc2)NC(=O)CNC(=O)[C@H](CO)NC(=O)CNC(=O)CNC(=O)CNC(=O)CNC(=O)[C@H](CCCCN)NC(=O)[C@H](Cc2ccccc2)NC(=O)[C@H](Cc2ccccc2)NC(=O)[C@H](CO)NC(=O)[C@H](C)NC(=O)[C@H](CCCNC(=N)N)NC(=O)[C@@H](NC(=O)[C@H](CCCCN)NC(=O)[C@H](Cc2c[nH]c3ccccc23)NC(=O)[C@H](CCCNC(=N)N)NC(=O)CNC(=O)[C@H](CCC(N)=O)NC(=O)[C@@H](NC(=O)[C@@H](N)CCCNC(=N)N)C(C)C)C(C)C)C(C)C)CSSC[C@@H](C(=O)N[C@@H](Cc2c[nH]cn2)C(=O)N[C@@H](CCCNC(=N)N)C(=O)N[C@@H](CCCNC(=N)N)C(=O)N[C@@H](C)C(=O)N[C@@H](CC(N)=O)C(=O)O)NC(=O)[C@H](C(C)C)NC(=O)[C@H](CCCNC(=N)N)NC1=O [G6] (H-RVQGRWKVRASFFKGGGGSGFAWNVCVYRNGVRVCHRRAN-OH; disulfide 26-35) | 11.46% | 3.06% | 6.97%

Where a SMILES comes first, the peptide text is derived from it. Bridges are numbered along the chain shown (N, C = ends).
